Data taken from patent US20040005636A1, “Method for obtaining the binding affinities of a peptide library to a protein” (priority 2002, published 2004).
No constants are given. Whether binding was seen depends on the method and setting.

Molecular target: T1, hTRβ-LBD (ligand binding domain of thyroid hormone receptor β) (human) (UniProt P10828)
T1 sequence (looked up): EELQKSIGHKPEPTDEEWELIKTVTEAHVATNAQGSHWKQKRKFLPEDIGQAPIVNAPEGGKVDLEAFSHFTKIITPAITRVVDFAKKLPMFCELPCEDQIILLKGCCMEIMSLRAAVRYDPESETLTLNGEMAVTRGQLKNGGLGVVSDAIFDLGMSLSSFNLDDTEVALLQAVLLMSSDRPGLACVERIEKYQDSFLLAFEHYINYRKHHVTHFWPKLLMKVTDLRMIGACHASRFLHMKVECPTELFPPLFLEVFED
Assay: fluorescence polarization, fluorescein-labelled peptide 10 nM, hTRβ-LBD titrated, T3 present

Q: With CQAQQKSLLQQLLTE (5-iodoacetamidofluorescein coupled to the amino terminal cysteine) [SRC1-7 coregulator peptide] as the binder, how does the binding read?
A: no binding (tested: assay limits; value not printed)
